Assay results from patent publication US20190390199.
Where a protein sequence is shown, tags need not be part of it.

Biological target: T1, TLR9 (Toll-like receptor 9) (Homo sapiens) (UniProt Q9NR96)
T1 sequence (looked up, limits assumed): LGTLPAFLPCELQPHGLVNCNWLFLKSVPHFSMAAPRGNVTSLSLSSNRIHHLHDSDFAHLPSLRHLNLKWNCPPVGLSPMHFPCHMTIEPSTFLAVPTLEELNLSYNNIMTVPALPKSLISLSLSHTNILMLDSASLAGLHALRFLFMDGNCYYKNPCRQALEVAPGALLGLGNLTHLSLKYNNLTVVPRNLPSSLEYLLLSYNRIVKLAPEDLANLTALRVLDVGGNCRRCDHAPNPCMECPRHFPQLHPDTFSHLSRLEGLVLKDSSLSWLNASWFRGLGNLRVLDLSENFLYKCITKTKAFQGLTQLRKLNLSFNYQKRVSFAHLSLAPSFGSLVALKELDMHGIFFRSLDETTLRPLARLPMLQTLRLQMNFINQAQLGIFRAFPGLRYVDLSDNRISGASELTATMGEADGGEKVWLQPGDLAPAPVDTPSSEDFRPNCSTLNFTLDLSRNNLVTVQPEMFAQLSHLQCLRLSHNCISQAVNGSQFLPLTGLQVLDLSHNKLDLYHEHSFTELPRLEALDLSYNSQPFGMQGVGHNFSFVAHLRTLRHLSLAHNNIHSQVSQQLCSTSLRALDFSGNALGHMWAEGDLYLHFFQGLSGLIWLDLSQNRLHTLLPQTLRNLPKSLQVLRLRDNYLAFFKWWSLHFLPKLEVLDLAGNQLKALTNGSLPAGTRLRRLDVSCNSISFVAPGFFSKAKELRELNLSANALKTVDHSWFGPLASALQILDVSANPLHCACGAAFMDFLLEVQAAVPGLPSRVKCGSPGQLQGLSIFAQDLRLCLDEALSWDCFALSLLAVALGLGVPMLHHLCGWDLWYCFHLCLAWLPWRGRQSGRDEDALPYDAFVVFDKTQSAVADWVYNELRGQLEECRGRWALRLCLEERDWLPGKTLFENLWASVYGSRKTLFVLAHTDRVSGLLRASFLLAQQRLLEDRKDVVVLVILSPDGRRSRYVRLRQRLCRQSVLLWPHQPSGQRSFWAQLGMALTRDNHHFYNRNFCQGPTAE
Experiment: activity in cells
Details: functional readout only; agonist used at 300 ng/ml (38.86 nM) to activate the TLR9 reporter; protein in cells; single-stranded DNA

**Q.** Which functional effect does the source give for “TCGTCGTTTTGTCGTTTTGTCGTT [ODN 2006 (TLR9 agonist)]” here?
**A.** active
